These are yes or no findings as the source states them, for the method shown. Binding seen in cells or lysates may run through a third protein. Some binding calls cover weakened binding; strength is not graded here.

The chains behind the UniProt entries cited, without tags or fusion partners.
UniProt Q9Y297: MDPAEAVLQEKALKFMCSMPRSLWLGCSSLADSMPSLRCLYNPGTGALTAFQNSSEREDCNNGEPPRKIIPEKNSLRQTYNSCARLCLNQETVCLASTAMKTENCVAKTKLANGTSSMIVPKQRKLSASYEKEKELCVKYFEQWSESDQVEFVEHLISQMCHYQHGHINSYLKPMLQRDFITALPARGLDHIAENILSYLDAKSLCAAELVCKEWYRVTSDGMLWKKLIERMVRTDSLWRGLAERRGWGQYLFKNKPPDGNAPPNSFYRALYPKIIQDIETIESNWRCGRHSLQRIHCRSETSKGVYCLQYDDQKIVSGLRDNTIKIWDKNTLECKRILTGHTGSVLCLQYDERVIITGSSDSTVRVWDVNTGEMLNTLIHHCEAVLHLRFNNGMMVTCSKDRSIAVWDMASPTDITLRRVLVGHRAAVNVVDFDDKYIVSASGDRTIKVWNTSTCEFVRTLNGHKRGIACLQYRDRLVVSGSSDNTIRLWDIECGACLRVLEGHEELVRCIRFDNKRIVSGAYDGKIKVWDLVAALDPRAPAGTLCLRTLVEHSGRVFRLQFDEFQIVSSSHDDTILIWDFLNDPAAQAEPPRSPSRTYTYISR
UniProt P01106: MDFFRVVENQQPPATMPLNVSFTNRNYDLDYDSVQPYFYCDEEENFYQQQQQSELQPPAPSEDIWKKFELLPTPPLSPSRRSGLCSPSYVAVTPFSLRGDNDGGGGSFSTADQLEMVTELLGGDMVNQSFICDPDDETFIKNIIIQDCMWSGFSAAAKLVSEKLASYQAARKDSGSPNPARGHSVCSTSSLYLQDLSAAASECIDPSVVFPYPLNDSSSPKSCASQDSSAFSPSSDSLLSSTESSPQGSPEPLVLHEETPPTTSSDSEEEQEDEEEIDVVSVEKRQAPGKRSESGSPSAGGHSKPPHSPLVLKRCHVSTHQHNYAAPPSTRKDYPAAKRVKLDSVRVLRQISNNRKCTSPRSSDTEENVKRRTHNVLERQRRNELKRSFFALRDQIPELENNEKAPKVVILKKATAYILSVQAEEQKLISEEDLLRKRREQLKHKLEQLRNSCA
UniProt Q07955: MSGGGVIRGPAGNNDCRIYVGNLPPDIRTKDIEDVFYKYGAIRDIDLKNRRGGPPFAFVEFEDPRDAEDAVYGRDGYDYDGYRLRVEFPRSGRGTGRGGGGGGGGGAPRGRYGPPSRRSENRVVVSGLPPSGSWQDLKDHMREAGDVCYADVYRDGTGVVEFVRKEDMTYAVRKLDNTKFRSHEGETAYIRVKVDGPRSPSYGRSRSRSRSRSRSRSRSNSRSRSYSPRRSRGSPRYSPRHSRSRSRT

Experiment [1] concerns the target β-TrCP (Beta-transducin repeat containing E3 ubiquitin protein ligase) (human (endogenous in CNE2 and 5-8F)) (UniProt Q9Y297). The experiment is described as follows: co-IP; CNE2 and 5-8F cells transfected with Flag tagged c-Myc; antibody on protein A/G magnetic beads, lysate overnight at 4 °C, western blotting. In general terms: In western blotting, separated proteins are transferred to a membrane and probed.

Experiment [2] concerns the target c-Myc (human (endogenous in CNE2 and 5-8F)) (UniProt P01106). The experiment is described as follows: co-IP; endogenous proteins of CNE2 and 5-8F lysates; IP with anti-β-TrCP, anti-phosphorylated (T58 + S62) c-Myc or anti-c-Myc antibody on protein A/G magnetic beads, overnight at 4 °C, western blotting; also after overexpression or knockdown of circPVT1.
Experiment [3] addresses β-TrCP (Beta-transducin repeat containing E3 ubiquitin protein ligase) (human (endogenous in CNE2 and 5-8F)) (UniProt Q9Y297). The description is as above.

As to “Flag tagged c-Myc (from UniProt P01106 1-454)”, the binding entry in experiment [1] was “binds”.

Consider “SRSF1 (Serine and arginine rich splicing factor 1) (from UniProt Q07955 1-248)”, for which the binding result in experiment [2] is recorded as “binds”. Take c-Myc (from UniProt P01106 1-454): the binding result in experiment [3] was “binds”.

In the case of “phosphorylated c-Myc (T58 + S62) (from UniProt P01106 1-454)”, the binding entry in experiment [3] is “binds”.

The values above are taken from PMC9533486.
